Assay results: the supplement of paper PMC12067093, “Discovery and optimisation of a covalent ligand for TRIM25 and its application to targeted protein ubiquitination” (Chemical Science, 2025)
The other results are listed elsewhere or left out.

Sequences of proteins named here, by UniProt entry; tags and fusion partners are left off. A change or cut given only in a name is not applied to a line headed by its entry.
UniProt Q9H4L5: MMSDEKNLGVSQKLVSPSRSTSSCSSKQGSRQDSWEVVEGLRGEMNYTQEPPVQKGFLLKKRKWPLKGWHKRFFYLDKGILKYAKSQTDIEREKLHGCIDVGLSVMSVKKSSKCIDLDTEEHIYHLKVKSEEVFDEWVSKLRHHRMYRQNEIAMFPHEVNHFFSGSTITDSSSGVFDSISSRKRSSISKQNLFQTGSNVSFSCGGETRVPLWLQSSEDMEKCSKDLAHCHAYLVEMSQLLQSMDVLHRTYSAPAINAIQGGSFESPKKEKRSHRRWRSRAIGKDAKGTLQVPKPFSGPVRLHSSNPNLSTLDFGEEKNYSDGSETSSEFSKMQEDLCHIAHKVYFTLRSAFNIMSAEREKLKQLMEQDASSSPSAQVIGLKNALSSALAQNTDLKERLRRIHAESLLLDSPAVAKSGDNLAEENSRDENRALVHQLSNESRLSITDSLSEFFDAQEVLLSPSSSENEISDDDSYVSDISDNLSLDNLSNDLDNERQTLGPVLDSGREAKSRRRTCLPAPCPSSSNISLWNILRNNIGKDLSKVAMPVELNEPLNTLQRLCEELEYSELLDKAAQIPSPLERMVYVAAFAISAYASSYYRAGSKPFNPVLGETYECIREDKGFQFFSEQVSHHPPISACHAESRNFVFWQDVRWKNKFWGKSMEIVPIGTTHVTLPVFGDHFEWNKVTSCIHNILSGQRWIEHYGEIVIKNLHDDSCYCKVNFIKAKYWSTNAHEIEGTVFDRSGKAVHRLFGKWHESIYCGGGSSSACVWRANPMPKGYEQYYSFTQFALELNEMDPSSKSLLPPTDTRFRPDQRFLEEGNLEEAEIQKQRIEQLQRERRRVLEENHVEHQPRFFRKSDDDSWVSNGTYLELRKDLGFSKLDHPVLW
UniProt Q99497, whole entry, looked up: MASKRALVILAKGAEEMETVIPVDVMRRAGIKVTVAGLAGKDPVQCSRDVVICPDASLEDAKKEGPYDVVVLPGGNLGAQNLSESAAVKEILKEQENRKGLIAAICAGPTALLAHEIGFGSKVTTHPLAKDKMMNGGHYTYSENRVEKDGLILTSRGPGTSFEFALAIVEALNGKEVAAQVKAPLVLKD
UniProt Q9Y2J8, whole entry, looked up: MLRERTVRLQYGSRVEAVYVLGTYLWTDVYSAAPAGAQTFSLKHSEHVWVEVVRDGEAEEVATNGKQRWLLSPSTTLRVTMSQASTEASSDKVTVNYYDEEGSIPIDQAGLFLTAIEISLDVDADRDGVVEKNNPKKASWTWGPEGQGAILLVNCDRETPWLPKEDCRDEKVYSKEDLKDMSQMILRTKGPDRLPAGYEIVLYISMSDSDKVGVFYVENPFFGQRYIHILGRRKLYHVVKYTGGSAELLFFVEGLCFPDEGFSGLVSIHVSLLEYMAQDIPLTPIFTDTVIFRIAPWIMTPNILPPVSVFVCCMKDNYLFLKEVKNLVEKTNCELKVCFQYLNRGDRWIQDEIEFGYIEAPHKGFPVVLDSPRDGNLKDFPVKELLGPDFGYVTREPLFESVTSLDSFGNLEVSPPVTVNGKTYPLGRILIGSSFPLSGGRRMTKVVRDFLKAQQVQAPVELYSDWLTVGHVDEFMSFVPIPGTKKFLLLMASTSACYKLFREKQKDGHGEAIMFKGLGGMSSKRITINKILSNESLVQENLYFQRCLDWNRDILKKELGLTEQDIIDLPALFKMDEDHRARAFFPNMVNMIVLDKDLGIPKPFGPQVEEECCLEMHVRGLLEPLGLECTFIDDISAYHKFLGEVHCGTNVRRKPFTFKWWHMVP
UniProt Q504Q3: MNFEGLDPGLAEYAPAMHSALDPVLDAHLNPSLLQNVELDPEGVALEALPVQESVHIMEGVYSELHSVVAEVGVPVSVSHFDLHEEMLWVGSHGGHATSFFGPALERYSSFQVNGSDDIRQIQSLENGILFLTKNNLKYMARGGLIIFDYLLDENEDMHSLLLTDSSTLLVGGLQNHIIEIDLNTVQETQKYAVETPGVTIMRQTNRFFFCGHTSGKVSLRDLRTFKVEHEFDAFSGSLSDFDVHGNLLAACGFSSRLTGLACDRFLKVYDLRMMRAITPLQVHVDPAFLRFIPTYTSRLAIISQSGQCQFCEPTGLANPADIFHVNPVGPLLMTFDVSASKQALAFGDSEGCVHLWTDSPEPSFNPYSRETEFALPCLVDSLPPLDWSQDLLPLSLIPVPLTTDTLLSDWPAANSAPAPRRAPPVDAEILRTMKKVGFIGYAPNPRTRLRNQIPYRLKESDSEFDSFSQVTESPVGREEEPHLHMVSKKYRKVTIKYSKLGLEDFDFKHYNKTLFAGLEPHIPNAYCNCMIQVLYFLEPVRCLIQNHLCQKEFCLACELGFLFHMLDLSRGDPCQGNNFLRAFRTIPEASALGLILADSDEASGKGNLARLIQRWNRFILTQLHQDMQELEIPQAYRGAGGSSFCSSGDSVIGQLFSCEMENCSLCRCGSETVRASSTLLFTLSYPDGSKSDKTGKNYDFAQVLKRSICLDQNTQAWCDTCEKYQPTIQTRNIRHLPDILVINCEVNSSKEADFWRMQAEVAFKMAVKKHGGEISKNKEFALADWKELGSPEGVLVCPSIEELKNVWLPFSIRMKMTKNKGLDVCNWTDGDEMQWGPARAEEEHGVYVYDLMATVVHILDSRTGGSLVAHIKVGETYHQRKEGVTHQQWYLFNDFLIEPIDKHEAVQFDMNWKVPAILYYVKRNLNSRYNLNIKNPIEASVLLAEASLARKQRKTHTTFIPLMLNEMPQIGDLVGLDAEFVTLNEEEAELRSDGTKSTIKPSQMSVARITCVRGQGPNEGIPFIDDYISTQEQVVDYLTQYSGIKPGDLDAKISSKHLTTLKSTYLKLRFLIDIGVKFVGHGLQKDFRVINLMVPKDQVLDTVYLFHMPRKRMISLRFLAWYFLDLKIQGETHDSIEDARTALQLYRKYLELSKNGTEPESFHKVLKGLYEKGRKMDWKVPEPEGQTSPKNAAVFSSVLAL
UniProt P22234: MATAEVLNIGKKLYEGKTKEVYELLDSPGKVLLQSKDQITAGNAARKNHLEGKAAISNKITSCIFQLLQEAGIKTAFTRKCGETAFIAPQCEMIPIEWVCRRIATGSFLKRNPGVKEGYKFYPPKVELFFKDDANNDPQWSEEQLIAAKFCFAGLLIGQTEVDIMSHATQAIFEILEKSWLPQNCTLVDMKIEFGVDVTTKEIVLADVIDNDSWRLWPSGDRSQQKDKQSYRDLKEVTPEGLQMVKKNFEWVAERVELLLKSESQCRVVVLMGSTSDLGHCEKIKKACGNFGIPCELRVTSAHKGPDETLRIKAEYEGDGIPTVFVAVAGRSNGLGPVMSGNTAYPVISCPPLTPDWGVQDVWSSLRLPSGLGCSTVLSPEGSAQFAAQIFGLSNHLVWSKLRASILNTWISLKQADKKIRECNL
UniProt Q32P28: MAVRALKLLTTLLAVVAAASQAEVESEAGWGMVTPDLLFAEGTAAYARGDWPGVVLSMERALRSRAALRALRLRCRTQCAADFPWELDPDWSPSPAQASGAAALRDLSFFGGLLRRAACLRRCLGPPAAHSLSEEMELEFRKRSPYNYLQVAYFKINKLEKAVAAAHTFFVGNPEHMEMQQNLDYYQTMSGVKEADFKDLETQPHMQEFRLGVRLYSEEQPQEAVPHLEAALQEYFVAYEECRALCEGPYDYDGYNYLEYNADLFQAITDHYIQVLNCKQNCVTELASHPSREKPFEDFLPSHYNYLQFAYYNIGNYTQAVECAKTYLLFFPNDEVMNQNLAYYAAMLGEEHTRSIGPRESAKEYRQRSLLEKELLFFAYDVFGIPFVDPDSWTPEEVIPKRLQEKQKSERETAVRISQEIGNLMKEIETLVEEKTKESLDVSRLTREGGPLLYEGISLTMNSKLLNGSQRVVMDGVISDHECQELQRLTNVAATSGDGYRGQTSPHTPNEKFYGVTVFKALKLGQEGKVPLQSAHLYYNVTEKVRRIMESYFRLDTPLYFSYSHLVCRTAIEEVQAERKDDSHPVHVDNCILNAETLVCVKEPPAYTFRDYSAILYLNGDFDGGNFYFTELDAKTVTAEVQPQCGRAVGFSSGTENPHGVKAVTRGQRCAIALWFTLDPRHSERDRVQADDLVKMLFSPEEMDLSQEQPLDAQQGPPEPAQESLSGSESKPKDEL
UniProt Q9BXW6, whole entry, looked up: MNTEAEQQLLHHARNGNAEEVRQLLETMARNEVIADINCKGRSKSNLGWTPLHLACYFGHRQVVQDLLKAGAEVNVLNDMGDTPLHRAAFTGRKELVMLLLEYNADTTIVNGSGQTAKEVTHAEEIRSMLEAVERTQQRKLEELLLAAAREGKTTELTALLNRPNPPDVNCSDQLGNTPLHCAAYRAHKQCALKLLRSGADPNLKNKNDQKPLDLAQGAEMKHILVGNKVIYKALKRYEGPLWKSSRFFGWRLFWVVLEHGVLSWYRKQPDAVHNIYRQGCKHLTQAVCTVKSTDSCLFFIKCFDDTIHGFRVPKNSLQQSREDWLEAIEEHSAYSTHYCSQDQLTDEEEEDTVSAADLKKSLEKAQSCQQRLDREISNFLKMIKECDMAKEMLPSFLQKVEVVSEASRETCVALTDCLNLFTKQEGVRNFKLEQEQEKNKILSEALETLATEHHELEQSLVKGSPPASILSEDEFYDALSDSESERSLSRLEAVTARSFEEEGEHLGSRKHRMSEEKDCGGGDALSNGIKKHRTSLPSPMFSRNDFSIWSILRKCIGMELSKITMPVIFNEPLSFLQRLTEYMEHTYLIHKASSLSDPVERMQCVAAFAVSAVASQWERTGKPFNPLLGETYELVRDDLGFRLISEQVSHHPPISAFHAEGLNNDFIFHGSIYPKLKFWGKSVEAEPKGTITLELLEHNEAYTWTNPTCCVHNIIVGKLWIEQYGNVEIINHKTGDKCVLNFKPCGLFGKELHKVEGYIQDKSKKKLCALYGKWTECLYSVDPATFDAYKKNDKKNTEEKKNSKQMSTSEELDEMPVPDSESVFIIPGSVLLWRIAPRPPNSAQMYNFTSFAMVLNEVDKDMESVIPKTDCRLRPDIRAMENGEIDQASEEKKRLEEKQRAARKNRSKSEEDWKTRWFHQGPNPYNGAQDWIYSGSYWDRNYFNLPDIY
UniProt P09874, whole entry, looked up: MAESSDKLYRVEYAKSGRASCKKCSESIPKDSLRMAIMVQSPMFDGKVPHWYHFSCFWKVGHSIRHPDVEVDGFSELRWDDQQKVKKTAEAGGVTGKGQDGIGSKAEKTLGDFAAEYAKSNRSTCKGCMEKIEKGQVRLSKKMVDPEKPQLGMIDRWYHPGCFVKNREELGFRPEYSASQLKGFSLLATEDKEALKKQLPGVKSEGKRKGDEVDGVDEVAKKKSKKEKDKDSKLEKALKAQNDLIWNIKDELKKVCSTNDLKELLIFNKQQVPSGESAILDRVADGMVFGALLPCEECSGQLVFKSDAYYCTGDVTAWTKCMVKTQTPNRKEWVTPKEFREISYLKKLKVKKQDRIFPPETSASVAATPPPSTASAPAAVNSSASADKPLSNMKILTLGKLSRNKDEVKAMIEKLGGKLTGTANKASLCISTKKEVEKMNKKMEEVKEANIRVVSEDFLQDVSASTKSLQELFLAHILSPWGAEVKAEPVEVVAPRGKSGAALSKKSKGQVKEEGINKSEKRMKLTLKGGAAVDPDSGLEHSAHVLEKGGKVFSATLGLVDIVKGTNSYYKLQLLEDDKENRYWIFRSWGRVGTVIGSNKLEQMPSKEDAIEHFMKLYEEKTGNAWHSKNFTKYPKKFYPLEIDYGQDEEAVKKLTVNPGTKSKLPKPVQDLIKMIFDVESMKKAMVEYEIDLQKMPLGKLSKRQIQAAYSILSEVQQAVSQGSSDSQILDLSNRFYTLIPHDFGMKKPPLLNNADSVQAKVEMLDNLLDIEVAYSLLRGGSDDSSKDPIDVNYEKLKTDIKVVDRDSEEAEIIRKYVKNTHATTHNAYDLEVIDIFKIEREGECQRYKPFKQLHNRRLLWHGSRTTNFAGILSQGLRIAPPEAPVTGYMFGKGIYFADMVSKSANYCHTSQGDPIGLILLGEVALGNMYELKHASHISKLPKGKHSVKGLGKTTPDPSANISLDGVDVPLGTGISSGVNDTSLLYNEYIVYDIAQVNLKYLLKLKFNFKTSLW
UniProt Q9UNF0: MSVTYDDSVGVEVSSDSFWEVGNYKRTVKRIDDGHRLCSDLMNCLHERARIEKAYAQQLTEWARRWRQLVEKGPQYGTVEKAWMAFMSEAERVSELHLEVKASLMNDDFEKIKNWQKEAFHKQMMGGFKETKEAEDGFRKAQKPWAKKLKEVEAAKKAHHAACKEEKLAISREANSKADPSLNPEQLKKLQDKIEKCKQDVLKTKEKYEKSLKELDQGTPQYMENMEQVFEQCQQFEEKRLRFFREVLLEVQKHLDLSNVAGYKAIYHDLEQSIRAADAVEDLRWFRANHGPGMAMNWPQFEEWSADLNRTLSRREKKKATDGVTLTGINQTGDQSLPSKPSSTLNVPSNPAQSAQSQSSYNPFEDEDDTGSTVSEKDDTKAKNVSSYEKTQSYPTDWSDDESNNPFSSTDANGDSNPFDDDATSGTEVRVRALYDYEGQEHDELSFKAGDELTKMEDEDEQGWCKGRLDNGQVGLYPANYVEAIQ

Compound: Cc1cc(ccc1-c1ccccc1)C(=O)N1CCCN(CC1)C(=O)CCl [compound 10]
Experiment: probe-labelled cysteine peptide fold change vs DMSO (competition) (log2 fold change); higher = less target engagement (more negative = stronger competition)
Conditions: THP-1, incubation time: 4 h
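Note: competitive profiling in live THP-1 cells: cysteine peptides tagged with an iodoacetamide desthiobiotin (IA-DTB) probe, intensity after compound treatment relative to DMSO-treated cells.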

Target | probe-labelled cysteine peptide fold change (10 µM) | probe-labelled cysteine peptide fold change (50 µM)
OSBPL3_Q9H4L5_718_NLHDDSCYCK (UniProt Q9H4L5) | 0.144 | 0.299
PARK7_Q99497_53_DVVICPDASLEDAK (UniProt Q99497) | -0.432 | 0.291
PADI2_Q9Y2J8_612+613_PFGPQVEEECCLEMHVR (UniProt Q9Y2J8) | -0.381 | -0.657
PARN_O95453_205_NLDLEPCTGFQR (UniProt O95453) | 0.118 | 0.0943
PAN2_Q504Q3_550_CLIQNHLCQK (UniProt Q504Q3) | 0.161 | 0.324
PAICS_P22234_91+100_CGETAFIAPQCEMIPIEWVCR (UniProt P22234) | 0.00291 | -0.167
PAPSS1_O43252_165_QIHEGASLPFFEVFVDAPLHVCEQR (UniProt O43252) | 0.21 | 0.147
P4HB_P07237_397_KNVFVEFYAPWCGHCK (UniProt P07237) | -0.644 | -2.76
P3H1_Q32P28_568_LDTPLYFSYSHLVCR (UniProt Q32P28) | -0.35 | 0.386
OSBPL8_Q9BZF1_255_CWMDALELALK (UniProt Q9BZF1) | -0.00277 | -0.137
PARP4_Q9UKK3_182_DCPFLISSHFLLDDGMETR (UniProt Q9UKK3) | 0.281 | -0.197
OSBPL1A_Q9BXW6_39_NEVIADINCK (UniProt Q9BXW6) | 0.149 | 0.0482
ORC1_Q13415_806_SGLEEATFQQIYSQHVALCR (UniProt Q13415) | 0.111 | -0.0714
PAFAH1B1_P43034_281_EHEHVVECISWAPESSYSSISEATGSETK (UniProt P43034) | -0.0287 | 0.0931
PARP1_P09874_845_IEREGECQR (UniProt P09874) | 0.221 | 0.000728
PARP12_Q9H0J9_195_FGTSCK (UniProt Q9H0J9) | -0.0288 | -0.0533
PACSIN2_Q9UNF0_44_LCSDLMNCLHER (UniProt Q9UNF0) | -0.0938 | -0.115
OSBPL3_Q9H4L5_114_CIDLDTEEHIYHLK (UniProt Q9H4L5) | -0.107 | 0.0518
PAN2_Q504Q3_798_ELGSPEGVLVCPSIEELK (UniProt Q504Q3) | -0.459 | -0.933
PARP10_Q53GL7_514_SLLGSISCHVLCLEHPGSAR (UniProt Q53GL7) | 0.123 | -0.198
PARP1_P09874_295_VADGMVFGALLPCEECSGQLVFK (UniProt P09874) | -0.0751 | 0.196
PAICS_P22234_91_CGETAFIAPQCEMIPIEWVCR (UniProt P22234) | 0.0818 | 0.171
PARP14_Q460N5_509_VTQHLCLK (UniProt Q460N5) | 0.0914 | 0.48
PARD3_Q8TEW0_66_LEHGDGGILDLDDILCDVADDKDR (UniProt Q8TEW0) | -0.345 | -0.0912

An excerpt of these results, as labelled records:
OSBPL3_Q9H4L5_718_NLHDDSCYCK (UniProt Q9H4L5)
  probe-labelled cysteine peptide fold change (10 µM) = 0.144
  probe-labelled cysteine peptide fold change (50 µM) = 0.299
PARK7_Q99497_53_DVVICPDASLEDAK (UniProt Q99497)
  probe-labelled cysteine peptide fold change (10 µM) = -0.432
  probe-labelled cysteine peptide fold change (50 µM) = 0.291
